{"source": "the supplement of paper PMC3334620", "note": "Whole data set: some 33,000 sequences, median “E-score (-0.5 to 0.5)” near -0.0034, cut for the highest 2% near 0.25. Some of the results follow."}
{"target": "T1, Yap3 (UniProt P38749)", "T1 sequence": "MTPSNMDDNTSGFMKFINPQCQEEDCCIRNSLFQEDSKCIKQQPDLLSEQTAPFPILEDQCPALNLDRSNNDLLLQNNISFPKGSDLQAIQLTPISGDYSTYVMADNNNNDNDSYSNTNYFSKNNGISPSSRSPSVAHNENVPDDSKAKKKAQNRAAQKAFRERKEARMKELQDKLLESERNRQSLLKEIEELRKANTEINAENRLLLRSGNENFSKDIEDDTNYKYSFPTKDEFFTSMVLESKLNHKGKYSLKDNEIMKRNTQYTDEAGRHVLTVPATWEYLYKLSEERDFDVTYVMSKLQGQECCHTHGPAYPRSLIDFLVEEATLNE", "assay": "PBM E-score (8-mer binding enrichment) (E-score (-0.5 to 0.5)); higher = stronger / more preferred TF binding", "details": "protein concentration: 100 nM; construct: GST-full length", "how_it_was_run": "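For each ungapped eight-base word taken together with its reverse complement, the Universal PBM Analysis Suite assigned an E-score. Binding data came from GST-tagged yeast transcription factors, applied at about 100-200 nM, on universal all-10-mer Agilent arrays made double-stranded by primer extension. Fluorescent anti-GST marked bound protein, and scans were normalised with masliner.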"}
{"sequence": "GATTTGAA", "PBM E-score": 0.105}
{"sequence": "TCGCCCGA", "PBM E-score": -0.087}
{"sequence": "CGGATAGC", "PBM E-score": 0.052}
{"sequence": "GAGCCAGA", "PBM E-score": -0.0308}
{"sequence": "GAGAGCCC", "PBM E-score": -0.368}
{"sequence": "ACAGTCTG", "PBM E-score": -0.0848}
{"sequence": "GACACGCC", "PBM E-score": -0.0195}
{"sequence": "AGCTGGTA", "PBM E-score": -0.19}
{"sequence": "CTCAGTCA", "PBM E-score": -0.0269}
{"sequence": "GGAAATTA", "PBM E-score": 0.332}
{"sequence": "CTGACTGC", "PBM E-score": -0.146}
{"sequence": "GTGGAGGA", "PBM E-score": -0.018}
{"sequence": "ACTAAGGA", "PBM E-score": 0.135}
{"sequence": "ATTAGAGC", "PBM E-score": 0.116}
{"sequence": "ACATCGAT", "PBM E-score": 0.0921}
{"sequence": "TACTCAGA", "PBM E-score": 0.193}
{"sequence": "AAAGGAAG", "PBM E-score": 0.0221}
{"sequence": "GCCTGATA", "PBM E-score": -0.0309}
{"sequence": "CTCGCGAA", "PBM E-score": -0.137}
{"sequence": "CTAGGCAC", "PBM E-score": -0.0902}
{"sequence": "GTACCTCA", "PBM E-score": 0.0926}
{"sequence": "AGCTCGCA", "PBM E-score": 0.00629}
{"sequence": "GACCACTC", "PBM E-score": -0.131}
{"sequence": "CAAATTTC", "PBM E-score": 0.173}
{"sequence": "TACGATAA", "PBM E-score": 0.223}
{"sequence": "AACTCGCT", "PBM E-score": 0.116}
{"sequence": "ACATACCG", "PBM E-score": -0.00463}
{"sequence": "AGCATCAT", "PBM E-score": 0.0467}
{"sequence": "CACTGTTC", "PBM E-score": -0.122}
{"sequence": "TAAGTTCA", "PBM E-score": 0.0657}
{"sequence": "CTAGCAGC", "PBM E-score": -0.0449}
{"sequence": "GCGAACGC", "PBM E-score": -0.105}
{"sequence": "CAGCTTGC", "PBM E-score": -0.0524}
{"sequence": "ATCTGCAG", "PBM E-score": 0.0186}
{"sequence": "CGCAGTAA", "PBM E-score": 0.17}
{"sequence": "GCAGCTAA", "PBM E-score": -0.176}
{"sequence": "GAAATTAC", "PBM E-score": 0.265}
{"sequence": "GCAGTCTA", "PBM E-score": -0.0323}
{"sequence": "GCATCGTA", "PBM E-score": -0.059}
{"sequence": "AGTTCGGG", "PBM E-score": 0.0635}
{"sequence": "GGTTAGTA", "PBM E-score": 0.0941}
{"sequence": "AAAAGTAC", "PBM E-score": 0.211}
{"sequence": "ATATACAG", "PBM E-score": 0.184}
{"sequence": "ATGTTACA", "PBM E-score": 0.0732}
{"sequence": "CCAGATTA", "PBM E-score": 0.0902}
{"sequence": "ACCCCTTG", "PBM E-score": -0.327}
{"sequence": "ACTAGTTC", "PBM E-score": 0.0926}
{"sequence": "AAGTTTCT", "PBM E-score": 0.144}
{"sequence": "ATCCGTCA", "PBM E-score": 0.0808}
{"sequence": "TCAGCAAA", "PBM E-score": 0.15}
{"sequence": "ATTTCCTA", "PBM E-score": 0.227}
{"sequence": "ACGGGCGG", "PBM E-score": -0.15}
{"sequence": "CGCGACCG", "PBM E-score": -0.00067}
{"sequence": "GAGAGCGC", "PBM E-score": -0.0761}
{"sequence": "AAGCTTTC", "PBM E-score": 0.0821}
{"sequence": "ACGCCTAT", "PBM E-score": -0.0267}
{"sequence": "TCGACTCA", "PBM E-score": 0.127}
{"sequence": "CAAGCCGG", "PBM E-score": 0.05}
{"sequence": "CTTAGCAC", "PBM E-score": -0.0486}
{"sequence": "GCTATAAA", "PBM E-score": 0.125}
{"sequence": "GTTGTTAA", "PBM E-score": 0.298}
{"sequence": "ACCATACA", "PBM E-score": 0.00929}
{"sequence": "GCTAAGAA", "PBM E-score": -0.0659}
{"sequence": "CGTAAGAG", "PBM E-score": 0.141}
{"sequence": "AGGTACCT", "PBM E-score": -0.132}
{"sequence": "CGTTCGTA", "PBM E-score": 0.213}
{"sequence": "ACGTACCG", "PBM E-score": 0.0422}
{"sequence": "GAATGATC", "PBM E-score": 0.0388}
{"sequence": "CCTGAATC", "PBM E-score": -0.0272}
{"sequence": "TATGGAGA", "PBM E-score": 0.106}
{"sequence": "GGTTTCCA", "PBM E-score": -0.0109}
{"sequence": "CGTTAGCA", "PBM E-score": 0.0832}
{"sequence": "AGCATCGG", "PBM E-score": -0.184}
{"sequence": "ACTGCTAC", "PBM E-score": 0.0438}
{"sequence": "AGTTAGTA", "PBM E-score": 0.195}
{"sequence": "AGGATCTG", "PBM E-score": -0.084}
{"sequence": "CTTAGCCC", "PBM E-score": -0.0308}
{"sequence": "AGCCGGCT", "PBM E-score": -0.343}
{"sequence": "GACGAAAA", "PBM E-score": 0.264}
{"sequence": "AGGCTTTA", "PBM E-score": -0.0587}
{"sequence": "CGGGCAAA", "PBM E-score": -0.00437}
{"sequence": "CAGAGCCA", "PBM E-score": -0.271}
{"sequence": "ATAGATGA", "PBM E-score": 0.0274}
{"sequence": "ATCCTTAC", "PBM E-score": 0.0371}
{"sequence": "ACACGGAA", "PBM E-score": 0.0309}
{"sequence": "GTTTTGGA", "PBM E-score": -0.0305}
{"sequence": "CTCGACAA", "PBM E-score": -0.0404}
{"sequence": "CAATATGG", "PBM E-score": -0.00272}
{"sequence": "AACCTACG", "PBM E-score": 0.116}
{"sequence": "ATCGATAA", "PBM E-score": 0.0958}
{"sequence": "ACCCGTGG", "PBM E-score": -0.293}
{"sequence": "ATCTTCGA", "PBM E-score": 0.00078}
{"sequence": "CTGGCAAA", "PBM E-score": 0.0635}
{"sequence": "AATACCCG", "PBM E-score": 0.0423}
{"sequence": "ACTATGTA", "PBM E-score": -0.0022}
{"sequence": "ATGACTTG", "PBM E-score": -0.02}
{"sequence": "TCCTCCAA", "PBM E-score": -0.0561}
{"sequence": "CTGAACTC", "PBM E-score": -0.146}
{"sequence": "GAGTGTGC", "PBM E-score": -0.037}
{"sequence": "ATGACTGC", "PBM E-score": -0.127}
{"sequence": "ACTCCAAT", "PBM E-score": 0.0453}
{"sequence": "GCGTGAAA", "PBM E-score": 0.145}
{"sequence": "GTGCGATA", "PBM E-score": 0.0332}
{"sequence": "GCCCACGA", "PBM E-score": -0.193}
{"sequence": "AGCGAGTC", "PBM E-score": -0.0628}
{"sequence": "AGTGCAAG", "PBM E-score": 0.0318}
{"sequence": "AACCGAGC", "PBM E-score": -0.019}
{"sequence": "ATGGCCTC", "PBM E-score": -0.0534}
{"sequence": "CCTAGGGA", "PBM E-score": 0.00627}
{"sequence": "GAGAATGC", "PBM E-score": 0.145}
{"sequence": "ACAACGCC", "PBM E-score": 0.0392}
{"sequence": "TCAATAGA", "PBM E-score": 0.00876}
{"sequence": "CCCCAAGC", "PBM E-score": -0.118}
{"sequence": "CGGCCGAG", "PBM E-score": -0.0519}
{"sequence": "TACATAAA", "PBM E-score": 0.251}
{"sequence": "GAGCGCCC", "PBM E-score": -0.266}
{"sequence": "CACAATTC", "PBM E-score": 0.194}
{"sequence": "GGGCGAGA", "PBM E-score": -0.133}
{"sequence": "TCAATTCA", "PBM E-score": 0.0527}
{"sequence": "GCCTCCTA", "PBM E-score": -0.0978}
{"sequence": "CCCTTCCC", "PBM E-score": -0.206}
{"sequence": "CGCTGAAA", "PBM E-score": -0.132}
{"sequence": "AGCTATAT", "PBM E-score": 0.102}
{"sequence": "AGCGGACG", "PBM E-score": 0.0065}
{"sequence": "AGTCTCCC", "PBM E-score": -0.103}
{"sequence": "CTCTTCGA", "PBM E-score": 0.0572}
{"sequence": "CCGCGAGG", "PBM E-score": -0.0632}
{"sequence": "ACCAAGAC", "PBM E-score": 0.175}
{"sequence": "ATCCGAAA", "PBM E-score": 0.0246}
{"sequence": "GGCAGGAA", "PBM E-score": -0.0994}
{"sequence": "GTACGGTA", "PBM E-score": 0.116}
{"sequence": "CATATGAG", "PBM E-score": 0.186}
{"sequence": "TAGCCTAA", "PBM E-score": -0.21}
{"sequence": "ACTGGTGC", "PBM E-score": -0.0779}
{"sequence": "GAGGCGGC", "PBM E-score": 0.0325}
{"sequence": "GTAGGGAC", "PBM E-score": -0.23}
{"sequence": "AAGCTGGG", "PBM E-score": -0.0964}
{"sequence": "AGTGCCAC", "PBM E-score": -0.152}
{"sequence": "AAAACCGG", "PBM E-score": -0.0353}
{"sequence": "AGATGTCC", "PBM E-score": -0.134}
{"sequence": "CAGGAAGC", "PBM E-score": 0.00172}
{"sequence": "GCGTGCAA", "PBM E-score": -0.0232}
{"sequence": "ACTAAATG", "PBM E-score": 0.0892}
{"sequence": "GAGTAAAA", "PBM E-score": 0.0681}
{"sequence": "GCTGGACA", "PBM E-score": -0.074}
{"sequence": "TGGGACCA", "PBM E-score": -0.0724}
{"sequence": "AGAGCCAA", "PBM E-score": -0.0964}
{"sequence": "AAAAAACC", "PBM E-score": 0.0612}
{"sequence": "AAGTGCCG", "PBM E-score": -0.0332}
{"sequence": "CTAAGACC", "PBM E-score": -0.0747}
{"sequence": "CTCCATAA", "PBM E-score": -0.0865}
{"sequence": "ATTGGCGG", "PBM E-score": -0.0717}
{"sequence": "CGGAAGCA", "PBM E-score": 0.112}
{"sequence": "ACCCCAAG", "PBM E-score": -0.0314}
{"sequence": "ATCGGACA", "PBM E-score": -0.151}
{"sequence": "CCCTATAC", "PBM E-score": -0.146}
{"sequence": "CCCGGTGC", "PBM E-score": -0.398}
{"sequence": "AACGTCCA", "PBM E-score": -0.0321}
{"sequence": "AAGATCTA", "PBM E-score": -0.0728}
{"sequence": "CGGATTAG", "PBM E-score": 0.075}
{"sequence": "GCGGCTGA", "PBM E-score": -0.1}
{"sequence": "TCCGCAAA", "PBM E-score": 0.0357}
{"sequence": "CGTGAATA", "PBM E-score": 0.193}
{"sequence": "GACCTTAC", "PBM E-score": 0.0154}
{"sequence": "GGAGTCCC", "PBM E-score": -0.367}
{"sequence": "TAGTTCAA", "PBM E-score": 0.0718}
{"sequence": "CCTATACG", "PBM E-score": -0.0828}
{"sequence": "AGTGGTCG", "PBM E-score": -0.0744}
{"sequence": "TAGTGAGA", "PBM E-score": 0.00091}
{"sequence": "AACTCACG", "PBM E-score": -0.028}
{"sequence": "CCAACGGC", "PBM E-score": -0.213}
{"sequence": "GGGAAGGA", "PBM E-score": -0.16}
